Data: the supplement of paper PMC10849652
The list shows a part of the results.

The chains behind the UniProt entries cited, without tags or fusion partners. Where a name states a change or a piece, a line headed by the entry shows the natural chain unless it says otherwise.
UniProt Q8N3F8: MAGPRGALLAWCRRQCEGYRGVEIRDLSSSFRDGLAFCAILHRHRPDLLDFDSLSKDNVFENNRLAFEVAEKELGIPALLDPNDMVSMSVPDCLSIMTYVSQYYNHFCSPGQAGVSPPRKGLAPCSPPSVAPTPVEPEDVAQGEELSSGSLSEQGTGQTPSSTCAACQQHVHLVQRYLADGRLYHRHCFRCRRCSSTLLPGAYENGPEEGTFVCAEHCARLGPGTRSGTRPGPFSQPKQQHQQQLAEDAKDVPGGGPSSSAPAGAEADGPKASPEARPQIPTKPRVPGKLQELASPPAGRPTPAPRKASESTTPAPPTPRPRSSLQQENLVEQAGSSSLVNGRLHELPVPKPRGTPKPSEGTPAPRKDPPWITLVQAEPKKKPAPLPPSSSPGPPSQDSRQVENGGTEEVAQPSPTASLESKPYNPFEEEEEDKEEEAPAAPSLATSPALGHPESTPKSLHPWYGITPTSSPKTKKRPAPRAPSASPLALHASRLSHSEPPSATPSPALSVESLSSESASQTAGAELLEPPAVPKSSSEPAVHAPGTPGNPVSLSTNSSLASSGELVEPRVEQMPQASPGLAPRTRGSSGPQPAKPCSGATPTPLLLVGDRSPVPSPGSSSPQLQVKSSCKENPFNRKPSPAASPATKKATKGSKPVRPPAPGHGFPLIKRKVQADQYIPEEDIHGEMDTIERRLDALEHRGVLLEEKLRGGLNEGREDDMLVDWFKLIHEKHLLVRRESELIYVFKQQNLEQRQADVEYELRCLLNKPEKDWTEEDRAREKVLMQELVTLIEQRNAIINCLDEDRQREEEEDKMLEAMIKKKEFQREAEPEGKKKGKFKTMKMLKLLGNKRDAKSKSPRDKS
UniProt Q13064: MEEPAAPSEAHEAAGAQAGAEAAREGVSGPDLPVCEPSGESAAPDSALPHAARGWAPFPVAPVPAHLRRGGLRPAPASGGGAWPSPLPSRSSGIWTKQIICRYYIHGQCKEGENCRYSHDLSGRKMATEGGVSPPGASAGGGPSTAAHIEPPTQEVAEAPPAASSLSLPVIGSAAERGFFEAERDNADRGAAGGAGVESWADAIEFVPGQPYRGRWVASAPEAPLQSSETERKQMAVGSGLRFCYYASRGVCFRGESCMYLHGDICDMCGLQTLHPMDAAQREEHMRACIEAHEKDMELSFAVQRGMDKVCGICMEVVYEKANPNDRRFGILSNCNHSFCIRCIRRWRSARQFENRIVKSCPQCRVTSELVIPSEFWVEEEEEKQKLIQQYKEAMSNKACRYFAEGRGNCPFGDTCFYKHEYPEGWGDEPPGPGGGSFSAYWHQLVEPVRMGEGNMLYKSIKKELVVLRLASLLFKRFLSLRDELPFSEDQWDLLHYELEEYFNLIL
UniProt Q8N344: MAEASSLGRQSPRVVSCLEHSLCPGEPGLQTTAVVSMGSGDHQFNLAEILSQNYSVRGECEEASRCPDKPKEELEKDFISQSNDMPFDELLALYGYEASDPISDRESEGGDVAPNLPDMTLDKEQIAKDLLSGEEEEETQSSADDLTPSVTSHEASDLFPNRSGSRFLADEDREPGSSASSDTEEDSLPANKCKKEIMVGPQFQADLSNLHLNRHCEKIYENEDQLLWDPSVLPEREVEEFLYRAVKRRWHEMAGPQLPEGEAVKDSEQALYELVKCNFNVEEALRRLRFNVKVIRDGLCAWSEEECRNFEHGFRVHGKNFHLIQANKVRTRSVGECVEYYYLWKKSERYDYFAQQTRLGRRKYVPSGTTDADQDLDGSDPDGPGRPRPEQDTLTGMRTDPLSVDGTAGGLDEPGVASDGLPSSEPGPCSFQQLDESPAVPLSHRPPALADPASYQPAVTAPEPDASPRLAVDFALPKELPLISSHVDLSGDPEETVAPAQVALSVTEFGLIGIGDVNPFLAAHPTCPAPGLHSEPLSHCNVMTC
UniProt Q9NPA3, whole entry, looked up: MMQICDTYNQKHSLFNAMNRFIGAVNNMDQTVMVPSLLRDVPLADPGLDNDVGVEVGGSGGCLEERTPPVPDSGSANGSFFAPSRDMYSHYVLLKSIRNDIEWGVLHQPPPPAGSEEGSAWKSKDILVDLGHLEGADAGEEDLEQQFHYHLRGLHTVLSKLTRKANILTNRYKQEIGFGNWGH
UniProt Q8IVH4: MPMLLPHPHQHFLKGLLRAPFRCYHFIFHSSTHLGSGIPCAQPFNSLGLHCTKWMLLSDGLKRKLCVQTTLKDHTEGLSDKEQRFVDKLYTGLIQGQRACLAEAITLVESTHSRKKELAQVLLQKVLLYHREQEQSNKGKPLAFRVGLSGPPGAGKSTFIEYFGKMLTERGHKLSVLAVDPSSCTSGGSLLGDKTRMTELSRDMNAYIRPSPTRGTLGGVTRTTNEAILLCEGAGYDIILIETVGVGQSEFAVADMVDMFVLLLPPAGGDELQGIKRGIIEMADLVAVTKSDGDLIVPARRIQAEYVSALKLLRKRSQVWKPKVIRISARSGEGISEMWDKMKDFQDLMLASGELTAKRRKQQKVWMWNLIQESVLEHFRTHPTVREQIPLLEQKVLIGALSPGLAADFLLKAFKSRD
UniProt Q13015: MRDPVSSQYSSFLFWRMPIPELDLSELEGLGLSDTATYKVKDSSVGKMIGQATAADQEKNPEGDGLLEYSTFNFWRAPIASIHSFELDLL
UniProt Q9Y6X9: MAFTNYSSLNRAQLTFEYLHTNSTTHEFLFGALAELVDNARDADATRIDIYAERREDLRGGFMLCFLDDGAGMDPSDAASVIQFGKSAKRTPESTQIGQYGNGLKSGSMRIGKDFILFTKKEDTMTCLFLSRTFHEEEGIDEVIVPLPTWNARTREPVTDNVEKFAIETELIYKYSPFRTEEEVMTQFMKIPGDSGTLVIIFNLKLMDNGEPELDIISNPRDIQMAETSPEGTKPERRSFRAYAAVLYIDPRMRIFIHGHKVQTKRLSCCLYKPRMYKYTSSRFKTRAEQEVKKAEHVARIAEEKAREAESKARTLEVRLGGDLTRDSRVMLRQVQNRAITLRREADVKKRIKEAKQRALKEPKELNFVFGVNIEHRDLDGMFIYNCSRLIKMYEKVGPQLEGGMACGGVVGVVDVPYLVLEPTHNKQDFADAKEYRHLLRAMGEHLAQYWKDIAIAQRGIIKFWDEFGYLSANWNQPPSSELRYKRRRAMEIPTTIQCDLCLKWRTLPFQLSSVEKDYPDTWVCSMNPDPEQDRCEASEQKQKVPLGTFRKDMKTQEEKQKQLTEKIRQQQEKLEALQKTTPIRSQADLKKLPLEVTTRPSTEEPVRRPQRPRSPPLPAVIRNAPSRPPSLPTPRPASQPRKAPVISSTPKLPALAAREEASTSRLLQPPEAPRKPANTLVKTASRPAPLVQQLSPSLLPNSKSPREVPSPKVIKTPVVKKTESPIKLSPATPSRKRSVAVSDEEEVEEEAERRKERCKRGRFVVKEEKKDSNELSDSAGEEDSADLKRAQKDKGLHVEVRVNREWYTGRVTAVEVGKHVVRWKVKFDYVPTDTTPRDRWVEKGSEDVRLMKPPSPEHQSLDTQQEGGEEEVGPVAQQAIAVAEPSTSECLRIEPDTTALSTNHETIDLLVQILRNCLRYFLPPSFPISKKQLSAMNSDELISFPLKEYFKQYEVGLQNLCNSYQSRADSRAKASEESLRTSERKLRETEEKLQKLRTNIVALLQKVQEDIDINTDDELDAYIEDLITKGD
UniProt Q9UJG1: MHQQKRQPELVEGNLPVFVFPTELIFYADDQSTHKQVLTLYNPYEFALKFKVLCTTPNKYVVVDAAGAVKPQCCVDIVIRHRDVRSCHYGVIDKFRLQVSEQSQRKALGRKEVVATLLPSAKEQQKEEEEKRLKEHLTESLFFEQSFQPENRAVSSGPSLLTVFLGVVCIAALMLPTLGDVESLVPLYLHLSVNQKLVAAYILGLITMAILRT
UniProt Q95460, whole entry, looked up: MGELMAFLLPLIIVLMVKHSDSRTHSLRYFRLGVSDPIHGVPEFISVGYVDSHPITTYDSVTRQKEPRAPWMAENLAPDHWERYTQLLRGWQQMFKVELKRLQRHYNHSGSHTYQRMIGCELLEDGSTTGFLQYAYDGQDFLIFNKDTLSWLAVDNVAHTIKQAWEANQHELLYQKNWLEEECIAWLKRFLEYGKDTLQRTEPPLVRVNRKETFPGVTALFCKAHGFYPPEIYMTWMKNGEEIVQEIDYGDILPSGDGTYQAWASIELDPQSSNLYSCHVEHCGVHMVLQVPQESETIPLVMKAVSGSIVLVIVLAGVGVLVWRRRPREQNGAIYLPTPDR
UniProt Q8NB16: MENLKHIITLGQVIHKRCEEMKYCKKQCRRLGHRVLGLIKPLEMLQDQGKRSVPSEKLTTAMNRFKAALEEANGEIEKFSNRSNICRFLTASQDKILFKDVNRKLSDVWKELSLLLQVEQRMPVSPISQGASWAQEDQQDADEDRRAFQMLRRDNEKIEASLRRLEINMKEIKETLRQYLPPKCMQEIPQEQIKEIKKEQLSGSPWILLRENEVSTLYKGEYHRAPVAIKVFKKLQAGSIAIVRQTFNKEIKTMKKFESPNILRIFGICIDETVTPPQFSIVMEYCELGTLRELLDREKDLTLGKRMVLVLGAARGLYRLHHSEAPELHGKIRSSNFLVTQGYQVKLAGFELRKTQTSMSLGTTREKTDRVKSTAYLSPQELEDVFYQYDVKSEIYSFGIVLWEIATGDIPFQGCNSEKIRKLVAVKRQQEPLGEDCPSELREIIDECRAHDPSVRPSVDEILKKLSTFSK
UniProt Q8TDZ2: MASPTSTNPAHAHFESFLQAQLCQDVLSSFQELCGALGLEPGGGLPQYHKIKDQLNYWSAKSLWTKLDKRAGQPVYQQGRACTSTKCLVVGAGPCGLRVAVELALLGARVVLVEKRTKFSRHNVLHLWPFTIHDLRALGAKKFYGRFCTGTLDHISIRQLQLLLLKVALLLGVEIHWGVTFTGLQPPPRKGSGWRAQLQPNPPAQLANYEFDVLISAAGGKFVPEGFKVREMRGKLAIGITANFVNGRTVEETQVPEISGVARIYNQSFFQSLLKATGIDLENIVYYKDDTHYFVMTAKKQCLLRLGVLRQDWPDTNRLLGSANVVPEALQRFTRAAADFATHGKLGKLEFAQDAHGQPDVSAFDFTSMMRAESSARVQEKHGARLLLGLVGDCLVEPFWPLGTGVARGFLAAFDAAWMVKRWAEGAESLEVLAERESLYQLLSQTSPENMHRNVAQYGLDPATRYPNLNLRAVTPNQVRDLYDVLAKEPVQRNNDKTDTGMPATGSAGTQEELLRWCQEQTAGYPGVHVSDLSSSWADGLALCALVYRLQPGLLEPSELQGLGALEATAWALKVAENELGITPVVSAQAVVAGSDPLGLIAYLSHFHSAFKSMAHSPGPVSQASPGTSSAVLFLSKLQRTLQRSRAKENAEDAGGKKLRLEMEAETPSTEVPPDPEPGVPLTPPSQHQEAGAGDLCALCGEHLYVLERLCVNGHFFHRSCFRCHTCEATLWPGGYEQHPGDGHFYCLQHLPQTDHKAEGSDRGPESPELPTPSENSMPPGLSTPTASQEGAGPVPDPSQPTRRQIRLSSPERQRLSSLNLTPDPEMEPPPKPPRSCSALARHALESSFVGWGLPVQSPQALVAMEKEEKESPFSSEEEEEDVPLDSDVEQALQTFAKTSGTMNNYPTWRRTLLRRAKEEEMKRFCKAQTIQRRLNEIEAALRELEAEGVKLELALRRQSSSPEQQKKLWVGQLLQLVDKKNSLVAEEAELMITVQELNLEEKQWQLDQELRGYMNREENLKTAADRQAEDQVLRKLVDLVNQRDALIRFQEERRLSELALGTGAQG
UniProt Q99549: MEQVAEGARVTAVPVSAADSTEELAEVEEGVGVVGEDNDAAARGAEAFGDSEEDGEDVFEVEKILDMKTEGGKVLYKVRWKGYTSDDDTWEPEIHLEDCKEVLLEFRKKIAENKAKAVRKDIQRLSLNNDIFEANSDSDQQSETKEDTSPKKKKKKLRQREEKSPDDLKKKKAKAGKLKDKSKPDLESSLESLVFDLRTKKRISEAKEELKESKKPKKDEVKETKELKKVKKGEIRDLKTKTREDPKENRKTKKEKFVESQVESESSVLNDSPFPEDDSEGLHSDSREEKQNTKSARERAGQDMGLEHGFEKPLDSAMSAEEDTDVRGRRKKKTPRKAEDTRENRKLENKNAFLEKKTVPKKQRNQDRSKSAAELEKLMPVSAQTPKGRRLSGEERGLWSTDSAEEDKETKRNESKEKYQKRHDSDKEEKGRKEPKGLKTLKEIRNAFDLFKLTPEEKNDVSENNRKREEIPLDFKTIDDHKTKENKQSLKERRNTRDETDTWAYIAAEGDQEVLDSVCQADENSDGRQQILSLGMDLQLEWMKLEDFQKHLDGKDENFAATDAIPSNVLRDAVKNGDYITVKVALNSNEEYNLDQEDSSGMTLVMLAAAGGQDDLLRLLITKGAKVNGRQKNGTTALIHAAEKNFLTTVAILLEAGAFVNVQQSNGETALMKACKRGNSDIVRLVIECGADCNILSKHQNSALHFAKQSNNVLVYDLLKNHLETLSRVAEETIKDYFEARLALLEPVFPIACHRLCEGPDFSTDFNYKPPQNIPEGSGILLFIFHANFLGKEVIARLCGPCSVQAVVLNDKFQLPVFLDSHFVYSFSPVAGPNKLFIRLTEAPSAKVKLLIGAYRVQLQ

compound: C#Cc1cccc(Nc2ncnc3cc(OCCOC)c(OCCOC)cc23)c1 [erlotinib]; assay: log2 fold change, soluble protein after heating vs DMSO (PISA); higher = thermal stabilisation; K562 cells, 10 uM, 30 min; active = over 0.2 and 3.5 SD of the protein, either way, in both replicates (recomputed)
In short: (§1)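 K562 cells (2×10^6 cells/mL) were treated with 10 μM compound for 30 min, and aliquots were heated for 3 min over 48°C-58°C. Pooled aliquots were extracted in PBS with 0.5% NP-40 at 4°C, and the supernatant after 21,000xg for 90 min was measured by TMTpro 16plex LC-MS/MS with channel sums equalised. Reported thermal stability, relative to control samples and from duplicates, is a log2 fold change.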

log2 fold change, inactive:
MINDY2 (UniProt Q8NBR6) -0.184, MKRN1 (UniProt Q9UHC7) 0.012, MOB3A (UniProt Q96BX8) -0.007, MMADHC (UniProt Q9H3L0) 0.088, MICALL1 (UniProt Q8N3F8) 0.131, MKRN3 (UniProt Q13064) -0.08, MIER2 (UniProt Q8N344) 0.466, MRFAP1 (UniProt Q9Y605) -0.007, MPC1 (UniProt Q9Y5U8) 0.019, MRPL18 (UniProt Q9H0U6) -0.12, MOCS2 (UniProt O96033) 0.118, MID1IP1 (UniProt Q9NPA3) -0.055, MOB2 isoform 3 (UniProt Q70IA6) 0.029, MMAA (UniProt Q8IVH4) 0.096, MLLT11 (UniProt Q13015) 0.018, MRM2 (UniProt Q9UI43) 0.023, MOB3B (UniProt Q86TA1) -0.305, MRAS (UniProt O14807) 0.047, MORC2 (UniProt Q9Y6X9) 0.105, MON1A (UniProt Q86VX9) -0.119, MICA (UniProt Q29983) -0.027, MME (UniProt P08473) 0.081, MOSPD1 isoform 3 (UniProt Q9UJG1) -0.014, MR1 (UniProt Q95460) -0.1, MMTAG2 (UniProt Q9BU76) -0.031, MRNIP (UniProt Q6NTE8) -0.029, MLKL (UniProt Q8NB16) 0.238, MKKS (UniProt Q9HB66) 0.111, MITF (UniProt O75030) -0.021, MICAL1 isoform 4 (UniProt Q8TDZ2) 0.07

compound: C/C(=N\NC(=O)C1=CC(=CC=C1)S(=O)(=O)N2CCOCC2)/C3=C(C=CC(=C3)Cl)O; assay: as above
In short: as §1

log2 fold change, inactive:
MPHOSPH8 isoform 2 (UniProt Q99549) 0.033, MICAL2 (UniProt O94851) -0.099, MOB3A (UniProt Q96BX8) 0.022, MMADHC (UniProt Q9H3L0) -0.002, MICALL1 (UniProt Q8N3F8) -0.012, MNT (UniProt Q99583) 0.008, MKRN3 (UniProt Q13064) -0.239, MRPL42 (UniProt Q9Y6G3) 0.004, MIER2 (UniProt Q8N344) 0.017, MRFAP1 (UniProt Q9Y605) -0.019, MPC1 (UniProt Q9Y5U8) 0.155, MOCS2 (UniProt O96033) -0.014, MPZL1 isoform 3 (UniProt O95297) 0.123, MMAA (UniProt Q8IVH4) -0.065, MRM2 (UniProt Q9UI43) 0.182, MOB3B (UniProt Q86TA1) 0.302, MORC2 (UniProt Q9Y6X9) 0.033, MICA (UniProt Q29983) -0.007, MMTAG2 (UniProt Q9BU76) -0.161, MLH1 (UniProt P40692) 0.027, MKKS (UniProt Q9HB66) 0, MITF (UniProt O75030) -0.015, MICAL1 isoform 4 (UniProt Q8TDZ2) 0.164

compound: C1=CC(=C(C=C1Cl)C2=NC3=NC=CN=C3C(=N2)NC4=CC=NC=C4)F; assay: as above
In short: as §1

log2 fold change, inactive:
MINDY2 (UniProt Q8NBR6) 0.231, MKRN1 (UniProt Q9UHC7) -0.131, MPHOSPH8 isoform 2 (UniProt Q99549) 0.24, MLLT10 (UniProt P55197) -0.044, MICAL2 (UniProt O94851) 0.05, MICALL1 (UniProt Q8N3F8) -0.067, MNT (UniProt Q99583) 0.068, MKRN3 (UniProt Q13064) 0.011, MRPL42 (UniProt Q9Y6G3) -0.079, MIER2 (UniProt Q8N344) 0, MRPL18 (UniProt Q9H0U6) -0.104, MID1IP1 (UniProt Q9NPA3) 0.006, MOB2 isoform 3 (UniProt Q70IA6) -0.077, MMAA (UniProt Q8IVH4) -0.088, MLLT11 (UniProt Q13015) 0.103, MORC2 (UniProt Q9Y6X9) -0.027, MON1A (UniProt Q86VX9) 0.022, MR1 (UniProt Q95460) -0.005, MLH1 (UniProt P40692) 0.077, MRNIP (UniProt Q6NTE8) 0.096, MLKL (UniProt Q8NB16) 0.144, MKKS (UniProt Q9HB66) 0.237, MICAL1 isoform 4 (UniProt Q8TDZ2) -0.071
